From paper PMC11252128
Results are given in words; binding and its absence hold for the method and conditions named. Binding seen in cells or lysates may run through a third protein. Binding calls can cover weak binding; strength is not graded here. Tags and fused reporters may be left off the sequences shown.

Tests used:
[1] = target: T1, OsERS2-Myc (rice (Oryza sativa L.)) (UniProt Q0DKM0); assay: co-IP; stable transgenic rice seedlings (receptor-Myc in WT or mhz3 background), 2 days in the dark, with or without 1 h of 10 μL/L ethylene; total proteins immunoprecipitated with anti-c-Myc affinity gel; blots anti-c-Myc, anti-OsCTR2, anti-MHZ3
T1 sequence: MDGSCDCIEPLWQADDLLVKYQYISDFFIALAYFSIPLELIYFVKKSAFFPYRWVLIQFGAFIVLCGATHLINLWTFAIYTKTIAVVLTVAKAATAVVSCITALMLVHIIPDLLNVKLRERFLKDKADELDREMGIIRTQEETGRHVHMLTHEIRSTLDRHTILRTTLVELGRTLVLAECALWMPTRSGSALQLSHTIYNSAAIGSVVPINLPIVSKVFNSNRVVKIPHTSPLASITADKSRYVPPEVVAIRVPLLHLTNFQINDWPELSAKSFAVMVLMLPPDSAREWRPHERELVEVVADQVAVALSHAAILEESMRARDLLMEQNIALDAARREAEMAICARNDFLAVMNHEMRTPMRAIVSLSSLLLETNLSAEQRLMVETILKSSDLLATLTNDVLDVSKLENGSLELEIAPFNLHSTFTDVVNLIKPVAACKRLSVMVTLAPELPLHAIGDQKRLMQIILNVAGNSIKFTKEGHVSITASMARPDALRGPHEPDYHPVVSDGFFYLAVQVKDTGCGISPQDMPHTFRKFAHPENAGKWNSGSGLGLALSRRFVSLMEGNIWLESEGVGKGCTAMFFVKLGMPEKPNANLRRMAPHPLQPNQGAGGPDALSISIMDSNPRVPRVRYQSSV

[2] = target: T2, OsETR2-Myc (rice (Oryza sativa L.)) (UniProt Q7XX84); assay: as above
T2 sequence: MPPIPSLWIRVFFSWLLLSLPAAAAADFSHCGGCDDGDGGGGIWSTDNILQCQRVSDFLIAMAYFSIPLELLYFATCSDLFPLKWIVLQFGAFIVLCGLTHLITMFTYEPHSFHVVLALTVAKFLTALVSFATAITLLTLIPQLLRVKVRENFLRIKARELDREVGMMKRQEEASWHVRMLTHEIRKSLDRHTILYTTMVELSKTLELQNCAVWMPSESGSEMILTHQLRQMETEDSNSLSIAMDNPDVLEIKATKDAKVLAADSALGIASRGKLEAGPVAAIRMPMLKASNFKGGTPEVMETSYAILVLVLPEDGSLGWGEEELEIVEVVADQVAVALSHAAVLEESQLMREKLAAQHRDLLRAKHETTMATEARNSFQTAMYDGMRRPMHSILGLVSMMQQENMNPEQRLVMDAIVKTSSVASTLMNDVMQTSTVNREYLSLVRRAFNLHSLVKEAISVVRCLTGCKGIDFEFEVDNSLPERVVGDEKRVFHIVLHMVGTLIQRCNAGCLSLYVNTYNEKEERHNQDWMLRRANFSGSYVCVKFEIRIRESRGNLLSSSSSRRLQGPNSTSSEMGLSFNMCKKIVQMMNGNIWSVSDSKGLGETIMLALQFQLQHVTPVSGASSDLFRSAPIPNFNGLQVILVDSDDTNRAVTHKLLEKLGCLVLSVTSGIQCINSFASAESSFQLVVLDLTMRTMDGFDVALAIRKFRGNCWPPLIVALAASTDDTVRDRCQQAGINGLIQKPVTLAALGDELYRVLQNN

[3] = target: T1, OsERS2-Myc (rice (Oryza sativa L.)); assay: pull-down; semi-in vitro pull-down: receptor-Myc immunoprecipitated with anti-c-Myc affinity gel from receptor-Myc/mhz3 plants, equal amounts added to homogenates of WT, mhz3 and MHZ3-OE#22 seedlings, 1 h at 4 °C; blot anti-OsCTR2; only the target purified
[4] = target: T2, OsETR2-Myc (rice (Oryza sativa L.)); assay: as above
[5] = target: T3, OsEIN2-GFP (rice (Oryza sativa L.)) (UniProt Q0D8I9); assay: co-IP; stable transgenic rice seedlings expressing OsEIN2-GFP, 2 days in the dark, air or 1 h of 10 μL/L ethylene; the methods name anti-c-Myc affinity gel or GFP-Trap_A beads for stable plants
T3 sequence: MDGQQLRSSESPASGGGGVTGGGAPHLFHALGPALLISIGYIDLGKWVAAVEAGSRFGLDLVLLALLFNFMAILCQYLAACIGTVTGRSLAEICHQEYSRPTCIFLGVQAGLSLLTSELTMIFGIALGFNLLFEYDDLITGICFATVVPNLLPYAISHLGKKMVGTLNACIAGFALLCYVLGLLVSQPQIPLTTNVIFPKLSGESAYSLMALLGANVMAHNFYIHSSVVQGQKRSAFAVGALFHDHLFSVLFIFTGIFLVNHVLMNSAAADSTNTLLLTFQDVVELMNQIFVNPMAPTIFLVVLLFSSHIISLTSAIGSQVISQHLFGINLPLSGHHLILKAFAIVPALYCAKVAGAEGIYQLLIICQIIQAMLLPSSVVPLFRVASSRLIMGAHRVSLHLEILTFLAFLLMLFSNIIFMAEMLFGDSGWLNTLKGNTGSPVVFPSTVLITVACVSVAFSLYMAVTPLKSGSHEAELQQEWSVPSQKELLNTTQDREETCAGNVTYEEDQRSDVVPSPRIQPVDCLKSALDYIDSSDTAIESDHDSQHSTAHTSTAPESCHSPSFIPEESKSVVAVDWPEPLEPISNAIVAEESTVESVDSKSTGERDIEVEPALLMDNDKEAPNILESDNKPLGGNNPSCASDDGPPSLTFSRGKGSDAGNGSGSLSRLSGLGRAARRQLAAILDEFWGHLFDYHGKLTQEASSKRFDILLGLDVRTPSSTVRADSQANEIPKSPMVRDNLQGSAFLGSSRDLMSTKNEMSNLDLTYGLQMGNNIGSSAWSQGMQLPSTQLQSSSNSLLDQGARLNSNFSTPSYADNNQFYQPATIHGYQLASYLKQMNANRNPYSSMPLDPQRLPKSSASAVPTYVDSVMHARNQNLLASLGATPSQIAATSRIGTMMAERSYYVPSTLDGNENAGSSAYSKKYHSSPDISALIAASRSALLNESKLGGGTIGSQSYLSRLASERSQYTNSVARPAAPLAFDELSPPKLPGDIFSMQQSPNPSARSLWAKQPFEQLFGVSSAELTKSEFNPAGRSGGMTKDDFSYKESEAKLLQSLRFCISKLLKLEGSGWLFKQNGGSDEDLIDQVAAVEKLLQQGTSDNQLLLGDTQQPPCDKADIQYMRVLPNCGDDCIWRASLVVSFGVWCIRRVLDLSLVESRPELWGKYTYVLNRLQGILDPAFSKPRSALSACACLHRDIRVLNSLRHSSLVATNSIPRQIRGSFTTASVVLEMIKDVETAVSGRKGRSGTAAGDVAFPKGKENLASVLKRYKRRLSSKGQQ

[6] = target: T4, Cluc-OsERS2 (rice (Oryza sativa L.)) (UniProt Q0DKM0); assay: split reporter; luciferase complementation imaging (LCI), enhanced-interaction assay in N. benthamiana leaves: Cluc-receptor plus OsCTR2-Nluc co-infiltrated with GFP or MHZ3-GFP on the two sides of the same leaf
T4 sequence: T1 sequence

[7] = target: T5, Cluc-OsETR2 (rice (Oryza sativa L.)) (UniProt Q7XX84); assay: as above
T5 sequence: T2 sequence

Measured: binding

OsCTR2 (rice (endogenous in rice seedlings)) (enzyme)
binds: [1] | [2] | [3] | [4]

MHZ3 (rice (endogenous in rice seedlings))
binds: [5] | [1] | [2]

OsCTR2-Nluc (rice (Oryza sativa L.)) (enzyme)
binds: [6] | [7]
